Source: article PMC9581534
Results are given in words; binding and its absence hold for the method and conditions named. Binding seen in cells or lysates may run through a third protein. Binding can be weak; no strength is given. Where a sequence is shown, tags or fusion partners need not be part of it.

Chains of the proteins cited; added tags and fusions are not shown. Lines headed by an entry give the natural chain unless they say otherwise; changes in a name come on top.
UniProt P16070: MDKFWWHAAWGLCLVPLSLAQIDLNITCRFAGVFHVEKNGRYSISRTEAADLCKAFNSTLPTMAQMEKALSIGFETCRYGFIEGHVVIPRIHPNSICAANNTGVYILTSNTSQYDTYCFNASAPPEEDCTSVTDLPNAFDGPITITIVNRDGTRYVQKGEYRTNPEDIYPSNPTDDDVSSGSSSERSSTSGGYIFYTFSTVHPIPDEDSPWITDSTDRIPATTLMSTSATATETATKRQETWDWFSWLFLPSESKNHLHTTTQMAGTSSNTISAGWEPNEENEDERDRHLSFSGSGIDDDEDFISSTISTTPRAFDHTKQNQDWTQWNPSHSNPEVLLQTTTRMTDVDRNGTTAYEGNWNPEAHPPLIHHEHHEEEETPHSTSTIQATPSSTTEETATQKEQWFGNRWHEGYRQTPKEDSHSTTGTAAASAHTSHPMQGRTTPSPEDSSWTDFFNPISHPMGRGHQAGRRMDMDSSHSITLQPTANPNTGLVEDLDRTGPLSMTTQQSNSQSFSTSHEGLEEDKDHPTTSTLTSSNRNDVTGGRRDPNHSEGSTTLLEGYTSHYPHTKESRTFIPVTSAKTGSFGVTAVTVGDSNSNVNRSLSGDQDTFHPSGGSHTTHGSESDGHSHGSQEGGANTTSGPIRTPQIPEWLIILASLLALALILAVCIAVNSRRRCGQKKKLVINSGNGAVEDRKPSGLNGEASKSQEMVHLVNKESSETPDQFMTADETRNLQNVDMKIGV

Biological target: Flag-tagged CD44 mutant CD44.m2 (point mutations in domain II) (human) (UniProt P16070)
Assay: co-IP; HEK293ft cells co-transfected with Flag-CD44 (WT or mutant) and HA-CD81 (WT or CD81d), harvested after 48 h; 200 µg lysate on anti-FLAG M2 magnetic beads overnight, glycine elution, immunoblot

B1: HA-tagged CD81 (wild type), expressed in HEK293ft cells (protein, UniProt P60033 1-236)
chain: MGVEGCTKCIKYLLFVFNFVFWLAGGVILGVALWLRHDPQTTNLLYLELGDKPAPNTFYVGIYILIAVGAVMMFVGFLGCYGAIQESQCLLGTFFTCLVILFACEVAAGIWGFVNKDQIAKDVKQFYDQALQQAVVDDDANNAKAVVKTFHETLDCCGSSTLTALTTSVLKNNLCPSGSNIISNLFKEDCHQKIDDLFSGKLYLIGIAAIVVAVIMIFEMILSMVLCCGIRNSSVY
B1 was tested, and the binding was “binds”.
